# The list shows only some results of the screen, not a fair sample: it is rich in T/C values a quarter to a half above the control, in often repeated tests (any T/C) and in doses without a T/C. Further doses and runs are listed elsewhere. T/C: endpoint of the treated group in % of that of the vehicle group. Some entries give survivors of the animals treated and no T/C: the source files T/C as zero there, which appears to mark a toxic dose or a test without result, not a measured value. Some survivor counts are full or nearly so, which does not show that the dose was tolerated: the source hardly ever lists a survival T/C far under the control, and the zero likely stands for such cases as well. Counts of survivors are from the toxicity check (mostly the fifth day) where no day follows; animals may have died later. Schedules are NCI's codes, taken here to give the interval after Q, in days (D) or hours (H), and the number of doses after X. Some doses were run more than once; the values are given in rising order. Some schedule codes hold Z or #, which are not explained here. For survival time, this PubChem deposit counts one and a half times the control or more as active, and values a quarter to a half above the control carry no call in these data; other NCI protocols may use other cut-offs. Some T/C values carry the count of animals alive at the toxicity check (mostly the fifth day); where none is given, no animal had died by that day. Marks such as (2×) say how often a value occurs here.
# System: CD2F1 mice, L1210 leukemia ip, survival T/C
# Experiment: NCI In Vivo Anticancer Drug Screen. Data for tumor model L1210 Leukemia (intraperitoneal) in CD2F1 (CDF1) mice
# Details: higher T/C = longer survival
# Procedure, shortened: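 Ratio T/C, where T is the treated-group value and C the vehicle-dosed control value, from mice implanted with a transplantable tumor.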
# [1] = T/C endpoint: mean survival time, dose: 200.0 mg/kg/injection, schedule: Q04DX003 (ip), vehicle: saline
# [2] = T/C endpoint: mean survival time, dose: 400.0 mg/kg/injection, schedule: Q04DX003 (ip), vehicle: saline with Tween-80
# [3] = T/C endpoint: mean survival time, dose: 200.0 mg/kg/injection, schedule: Q04DX002 (ip), vehicle: saline with Tween-80
# [4] = T/C endpoint: mean survival time, dose: 400.0 mg/kg/injection, schedule: Q04DX002 (ip), vehicle: saline with Tween-80
# [5] = T/C endpoint: mean survival time, dose: 200.0 mg/kg/injection, schedule: Q04DX003 (ip), vehicle: saline with Tween-80
# [6] = T/C endpoint: mean survival time, dose: 400.0 mg/kg/injection, schedule: Q01DX009 (ip), vehicle: saline with Tween-80
# [7] = T/C endpoint: mean survival time, dose: 200.0 mg/kg/injection, schedule: Q04DX003 (ip), vehicle: saline sonified
# [8] = T/C endpoint: mean survival time, dose: 400.0 mg/kg/injection, schedule: Q04DX003 (ip), vehicle: saline sonified
# [9] = T/C endpoint: mean survival time, dose: 4.0 mg/kg/injection, schedule: Q01DX009 (ip), vehicle: Klucel (hydroxypropylcellulose) (HPC)
smiles,measurement,setting,value
CC[C@@]1(O)C[C@H](OC2CC(N(C)C)C(OC3CC(O)C(OC4CCC(=O)C(C)O4)C(C)O3)C(C)O2)c2c(cc3c(c2O)C(=O)c2c(O)ccc(O)c2C3=O)[C@H]1C(=O)OC (stereo partly specified),T/C,"T/C endpoint: mean survival time, dose: 1.0 mg/kg/injection, schedule: Q01DX009 (ip), vehicle: water",132 and 133 % of control [5 of 6 alive]
same,T/C,"T/C endpoint: mean survival time, dose: 2.0 mg/kg/injection, schedule: Q01DX009 (ip), vehicle: water",142 % of control
same,survivor count,"T/C endpoint: mean survival time, dose: 4.0 mg/kg/injection, schedule: Q01DX009 (ip), vehicle: water",4 of 6 and 5 of 6
same,survivor count,"T/C endpoint: mean survival time, dose: 8.0 mg/kg/injection, schedule: Q01DX009 (ip), vehicle: water",2 of 6 and 3 of 6
Cc1cc(C)[nH]c(=S)n1.[Pt],T/C,"T/C endpoint: mean survival time, dose: 25.0 mg/kg/injection, schedule: Q04DX003 (ip), vehicle: saline",129 % of control
same,T/C,[1],147 % of control
O=[n+]1cc2ccccn2cc1-c1ccccc1,survivor count,[2],6 of 6
CC1CCC(N=C2OCCN2N=O)CC1 (stereo unspecified),survivor count,"T/C endpoint: mean survival time, dose: 200.0 mg/kg/injection, schedule: Q01DX001 (ip), vehicle: distilled water + Tween-80",0 of 6
same,survivor count,"T/C endpoint: mean survival time, dose: 400.0 mg/kg/injection, schedule: Q01DX001 (ip), vehicle: distilled water + Tween-80",0 of 6
same,survivor count,"T/C endpoint: mean survival time, dose: 800.0 mg/kg/injection, schedule: Q01DX001 (ip), vehicle: distilled water + Tween-80",0 of 6
CCOC(=O)N(C)N=NC,T/C,"T/C endpoint: median survival time, dose: 15.0 mg/kg/injection, schedule: Q01DX005 (ip), vehicle: saline",133 % of control
same,T/C,"T/C endpoint: median survival time, dose: 18.0 mg/kg/injection, schedule: Q01DX005 (ip), vehicle: saline",134 % of control
same,T/C,"T/C endpoint: median survival time, dose: 30.0 mg/kg/injection, schedule: Q01DX005 (ip), vehicle: saline",142 and 144 % of control
same,survivor count,"T/C endpoint: median survival time, dose: 83.33 mg/kg/injection, schedule: Q01DX005 (ip), vehicle: saline",0 of 6
COc1ccccc1NC(=O)Oc1ccccc1-c1ccccc1,survivor count,[3],3 of 3
same,survivor count,[4],3 of 3
O=C1Nc2ccccc2/C1=N/N=C/c1cc(Cl)cc(Cl)c1O,survivor count,"T/C endpoint: mean survival time, dose: 200.0 mg/kg/injection, schedule: Q01DX001 (ip), vehicle: saline with Tween-80",6 of 6
N#C/C(C(=S)S)=C(/O)c1ccccc1,survivor count,[5],1 of 6
same,survivor count,[2],0 of 6
O=C(CCl)Nc1ccc([N+](=O)[O-])cc1,survivor count,"T/C endpoint: mean survival time, dose: 100.0 mg/kg/injection, schedule: Q04DX002 (ip), vehicle: saline with Tween-80",3 of 3
same,survivor count,[3],3 of 3
COc1cc2c(cc1OC)[C@@H]1C(=O)c3ccc4c(c3O[C@@H]1CO2)C[C@H](C(C)C)O4,T/C,"T/C endpoint: median survival time, dose: 50.0 mg/kg/injection, schedule: Q01DX005 (ip), vehicle: Klucel (hydroxypropylcellulose) (HPC), evaluated on day 20",135 % of control
same,T/C,"T/C endpoint: median survival time, dose: 50.0 mg/kg/injection, schedule: Q01DX005 (ip), vehicle: Klucel (hydroxypropylcellulose) (HPC), evaluated on day 30",125 % of control
same,T/C,"T/C endpoint: median survival time, dose: 83.33 mg/kg/injection, schedule: Q01DX005 (ip), vehicle: Klucel (hydroxypropylcellulose) (HPC)",131 % of control
same,survivor count,"T/C endpoint: median survival time, dose: 138.89 mg/kg/injection, schedule: Q01DX005 (ip), vehicle: Klucel (hydroxypropylcellulose) (HPC)",2 of 6
CN=C(N)c1ccc(N=C(N)c2ccc(N=C(N)c3ccc(NC(=O)c4ccc(C(=O)Nc5ccc(C(N)=Nc6ccc(C(N)=Nc7ccc(C(N)=NC)cc7)cc6)cc5)cc4)cc3)cc2)cc1,survivor count,"T/C endpoint: mean survival time, dose: 125.0 mg/kg/injection, schedule: Q01DX Z (ip), vehicle: water",2 of 6
same,survivor count,"T/C endpoint: mean survival time, dose: 250.0 mg/kg/injection, schedule: Q01DX Z (ip), vehicle: water",0 of 6
same,survivor count,"T/C endpoint: mean survival time, dose: 500.0 mg/kg/injection, schedule: Q01DX Z (ip), vehicle: water",0 of 6
CCc1cc(O)cc(C)c1Cl,survivor count,[6],1 of 6
CCC12CCC(=O)C=C1CCCC2=O (stereo unspecified),survivor count,[7],2 of 6
same,survivor count,[8],0 of 6
CCC(C)NCCNCCNC(C)CC (stereo unspecified),survivor count,"T/C endpoint: mean survival time, dose: 100.0 mg/kg/injection, schedule: Q04DX003 (ip), vehicle: saline sonified",1 of 6
same,survivor count,[7],0 of 6
same,survivor count,[8],0 of 6
CCN(CC)C(=O)c1ccc[n+](Cc2ccc(Cl)c(Cl)c2)c1,survivor count,[1],0 of 6
same,survivor count,"T/C endpoint: mean survival time, dose: 400.0 mg/kg/injection, schedule: Q04DX003 (ip), vehicle: saline",0 of 6
CCOC(=O)C(C(=O)OCC)C1CCC2(C)CCC(=O)C=C2C1 (stereo unspecified),T/C,[4],136 % of control
O=c1cc[nH]c2cc(Cl)ccc12,survivor count,"T/C endpoint: mean survival time, dose: 400.0 mg/kg/injection, schedule: Q04DX003 (ip), vehicle: alcohol",1 of 6
CC[C@]1(O)C[C@H](OC2CC(N(C)C)C(OC3CC(O)C(O)C(C)O3)C(C)O2)c2c(cc3c(c2O)C(=O)c2c(O)ccc(O)c2C3=O)[C@H]1C(=O)OC (stereo partly specified),T/C,"T/C endpoint: mean survival time, dose: 0.25 mg/kg/injection, schedule: Q01DX009 (ip), vehicle: Klucel (hydroxypropylcellulose) (HPC)","97, 118, 120 % of control (2×)"
same,T/C,"T/C endpoint: mean survival time, dose: 0.5 mg/kg/injection, schedule: Q01DX009 (ip), vehicle: Klucel (hydroxypropylcellulose) (HPC)","107, 110, 118, 121 % of control"
same,T/C,"T/C endpoint: mean survival time, dose: 1.0 mg/kg/injection, schedule: Q01DX009 (ip), vehicle: Klucel (hydroxypropylcellulose) (HPC)","107, 118 (2×), 121, 127 % of control [9 of 10 alive]"
same,T/C,"T/C endpoint: mean survival time, dose: 2.0 mg/kg/injection, schedule: Q01DX009 (ip), vehicle: Klucel (hydroxypropylcellulose) (HPC)","105, 116, 119, 124, 140 % of control"
same,T/C,[9],"108, 112, 142 % of control"
same,survivor count,[9],7 of 10
same,survivor count,"T/C endpoint: mean survival time, dose: 8.0 mg/kg/injection, schedule: Q01DX009 (ip), vehicle: Klucel (hydroxypropylcellulose) (HPC)",6 of 6
Nc1ccccc1Nc1ccncc1,survivor count,"T/C endpoint: mean survival time, dose: 100.0 mg/kg/injection, schedule: Q01DX009 (ip), vehicle: saline with Tween-80",1 of 6
same,survivor count,[5],3 of 6
same,survivor count,[2],2 of 6
CCOCCN1CCN(CCCN2c3ccccc3Sc3ccc(C(F)(F)F)cc32)CC1,T/C,"T/C endpoint: mean survival time, dose: 50.0 mg/kg/injection, schedule: Q04DX003 (ip), vehicle: saline",132 % of control
same,survivor count,"T/C endpoint: mean survival time, dose: 75.0 mg/kg/injection, schedule: Q04DX003 (ip), vehicle: saline",2 of 6
O=NNc1ccccn1,T/C,"T/C endpoint: mean survival time, dose: 12.0 mg/kg/injection, schedule: Q04DX003 (ip), vehicle: saline",128 % of control [5 of 6 alive]
same,T/C,"T/C endpoint: mean survival time, dose: 18.0 mg/kg/injection, schedule: Q04DX003 (ip), vehicle: saline",127 % of control
same,T/C,"T/C endpoint: mean survival time, dose: 27.0 mg/kg/injection, schedule: Q04DX003 (ip), vehicle: saline",128 % of control
same,T/C,"T/C endpoint: median survival time, dose: 6.25 mg/kg/injection, schedule: Q01DX005 (ip), vehicle: saline",125 and 128 % of control
same,T/C,"T/C endpoint: median survival time, dose: 12.5 mg/kg/injection, schedule: Q01DX005 (ip), vehicle: saline",140 and 145 % of control
same,T/C,"T/C endpoint: median survival time, dose: 12.5 mg/kg/injection, schedule: Q01DX009 (ip), vehicle: saline",134 % of control
same,T/C,"T/C endpoint: median survival time, dose: 25.0 mg/kg/injection, schedule: Q01DX005 (ip), vehicle: saline",140 % of control
same,survivor count,"T/C endpoint: median survival time, dose: 25.0 mg/kg/injection, schedule: Q01DX009 (ip), vehicle: saline",10 of 10
C=C(C)C(=O)OC1C/C(CO)=C\C(O)C/C(C)=C/C2OC(=O)C(=C)C21 (stereo unspecified),T/C,"T/C endpoint: mean survival time, dose: 10.0 mg/kg/injection, schedule: Q01DX009 (ip), vehicle: saline + alcohol",125 % of control
same,T/C,"T/C endpoint: mean survival time, dose: 20.0 mg/kg/injection, schedule: Q01DX009 (ip), vehicle: saline + alcohol",129 % of control
same,T/C,"T/C endpoint: mean survival time, dose: 40.0 mg/kg/injection, schedule: Q01DX009 (ip), vehicle: saline + alcohol",127 % of control [4 of 6 alive]
CC(C)(C)C1CCC(OC(=O)C(=O)O)CC1 (stereo unspecified),survivor count,[6],6 of 6
O=C1N[C@@H]2C(=C[C@H](O)[C@@H](O)[C@H]2O)c2cc3c(c(O)c21)OCO3,survivor count,"T/C endpoint: median survival time, dose: 10.0 mg/kg/injection, schedule: Q01DX009 (ip), vehicle: saline with Tween-80",2 of 6
CCOc1ccc(-n2c(O)c(N=Nc3ccccc3OC)c(=O)n(-c3ccccc3)c2=S)cc1,survivor count,"T/C endpoint: mean survival time, dose: 400.0 mg/kg/injection, schedule: Q01DX001 (ip), vehicle: saline with Tween-80",3 of 6
CCN(CC)CCN(C)N=Nc1ccccc1C(=O)NN,survivor count,"T/C endpoint: mean survival time, dose: 290.0 mg/kg/injection, schedule: Q01DX001 (ip), vehicle: saline",1 of 6
same,survivor count,"T/C endpoint: mean survival time, dose: 580.0 mg/kg/injection, schedule: Q01DX001 (ip), vehicle: saline",0 of 6

# Source: PubChem BioAssay AID256 (DTP/NCI, 2004)
